Results are given in words; binding and its absence hold for the method and conditions named. Some binding calls cover weakened binding; strength is not graded here.
Experiments:
[1] = target: integrin α5 on HMVEC-LLy cells (human) (UniProt P08648); experiment: HMVEC-LLy cell binding in vitro, integrin identification
[2] = target: integrin β1 on HMVEC-LLy cells (human) (UniProt P05556); experiment: as above
[3] = target: integrin α5 on HMVEC-LLy cells (human) (UniProt P08648); experiment: HMVEC-LLy cell attachment with anti-integrin antibodies, CP17 5 µM
[4] = target: integrin β1 on HMVEC-LLy cells (human) (UniProt P05556); experiment: as above

Sequences of proteins named here, by UniProt entry; tags and fusion partners are left off. Residues count along the entry.
UniProt P08648, residues 42-1049: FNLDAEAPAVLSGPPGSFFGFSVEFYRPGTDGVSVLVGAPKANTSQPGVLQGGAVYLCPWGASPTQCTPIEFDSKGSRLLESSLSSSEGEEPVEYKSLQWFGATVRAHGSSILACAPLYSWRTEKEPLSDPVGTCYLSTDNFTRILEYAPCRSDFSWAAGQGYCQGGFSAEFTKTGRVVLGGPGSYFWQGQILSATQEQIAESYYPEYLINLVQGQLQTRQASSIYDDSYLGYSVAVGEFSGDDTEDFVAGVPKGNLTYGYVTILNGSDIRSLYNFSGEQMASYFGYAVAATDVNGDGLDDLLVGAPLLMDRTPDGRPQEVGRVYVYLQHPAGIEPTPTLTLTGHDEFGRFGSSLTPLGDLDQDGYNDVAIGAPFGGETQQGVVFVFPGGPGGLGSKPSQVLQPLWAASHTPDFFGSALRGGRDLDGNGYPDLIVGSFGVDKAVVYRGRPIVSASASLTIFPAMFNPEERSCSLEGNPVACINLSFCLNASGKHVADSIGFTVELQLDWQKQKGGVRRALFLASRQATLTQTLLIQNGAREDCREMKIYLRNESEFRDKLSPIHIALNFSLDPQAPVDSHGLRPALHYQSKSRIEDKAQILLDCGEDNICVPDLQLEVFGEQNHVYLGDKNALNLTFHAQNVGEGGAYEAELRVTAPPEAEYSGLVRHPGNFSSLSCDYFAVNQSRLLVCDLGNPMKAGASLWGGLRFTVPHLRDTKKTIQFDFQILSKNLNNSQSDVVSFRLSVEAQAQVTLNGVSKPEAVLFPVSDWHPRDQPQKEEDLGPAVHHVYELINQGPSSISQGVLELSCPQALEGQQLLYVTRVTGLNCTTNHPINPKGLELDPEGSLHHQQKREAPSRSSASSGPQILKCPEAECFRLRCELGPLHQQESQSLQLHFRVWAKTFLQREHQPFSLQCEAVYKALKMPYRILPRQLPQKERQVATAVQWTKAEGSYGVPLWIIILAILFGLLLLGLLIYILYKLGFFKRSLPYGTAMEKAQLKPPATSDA
UniProt P05556: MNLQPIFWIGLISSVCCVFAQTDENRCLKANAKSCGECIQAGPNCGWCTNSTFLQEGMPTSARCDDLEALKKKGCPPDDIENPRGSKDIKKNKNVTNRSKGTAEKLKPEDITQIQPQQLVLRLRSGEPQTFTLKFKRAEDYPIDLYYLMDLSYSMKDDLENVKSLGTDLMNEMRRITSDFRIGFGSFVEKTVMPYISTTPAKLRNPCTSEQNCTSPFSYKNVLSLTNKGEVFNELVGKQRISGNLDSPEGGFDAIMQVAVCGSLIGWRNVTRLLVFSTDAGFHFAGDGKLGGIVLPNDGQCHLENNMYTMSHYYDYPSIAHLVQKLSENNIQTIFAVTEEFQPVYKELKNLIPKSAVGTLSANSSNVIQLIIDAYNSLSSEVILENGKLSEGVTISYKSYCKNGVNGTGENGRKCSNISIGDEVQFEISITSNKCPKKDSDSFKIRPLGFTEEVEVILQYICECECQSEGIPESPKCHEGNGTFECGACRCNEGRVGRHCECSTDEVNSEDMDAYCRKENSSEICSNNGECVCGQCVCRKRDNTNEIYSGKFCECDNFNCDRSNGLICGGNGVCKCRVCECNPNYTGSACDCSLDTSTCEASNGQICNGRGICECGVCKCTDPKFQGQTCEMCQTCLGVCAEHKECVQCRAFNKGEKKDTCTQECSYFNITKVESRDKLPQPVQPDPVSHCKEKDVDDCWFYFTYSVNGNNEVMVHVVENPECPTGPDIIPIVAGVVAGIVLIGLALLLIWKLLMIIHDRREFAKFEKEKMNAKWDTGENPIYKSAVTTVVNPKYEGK

Measured: binding

VCNFASRNDYSYWLSTP [peptide CP17]
binds: all assays above
